Results deposited as PubChem BioAssay AID686938 (Drosophila RNAi Screening Center, 2013).

- Purpose: 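Looking for CRAC channel components and the factors controlling them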 (primary screen)
- Cells: Drosophila S2R+ cells
- Reagents: long dsRNA against Drosophila genes, about 0.25 µg dsRNA per well, roughly 10,000 cells
- Duration: 5 days of knock-down before the calcium assay
- Challenge: thapsigargin (SERCA pump blocker) to empty calcium stores; entry signal taken 4 min after adding it
- Detection: 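Duplicate raw fluo-4 intensities per well from a plate reader, at rest and four minutes after thapsigargin emptied calcium stores; entry-to-rest ratio filled for only some wells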
- Direction: calcium entry signal: higher = stronger calcium signal after store depletion; resting calcium signal: higher = higher resting calcium signal
- Rule for the call: 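Called when the plate z-score of the entry-to-rest ratio, mean of duplicates, falls below −3; wells with low overall dye signal (Fmax z below −2) or more than five off-targets excluded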
- Meaning of the calls: active = strongly reduced calcium entry; inactive = no strong reduction
The screen tested about 23,000 reagents; below is an unselected part of those that have a named target and a result. Of all reagents, 75 (0.33%) got an active call. 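Raw plate signals without normalisation; calls rest on plate z-scores that were not deposited; ratio present for only 364 wells.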 Unmarked entries are inactive. Names joined by + are all predicted targets of the reagent. Not given: the dose of the treatment.

| gene knocked down | DRSC id | calcium entry signal, replicate 1 (fluorescence units) | calcium entry signal, replicate 2 (fluorescence units) | resting calcium signal, replicate 1 (fluorescence units) | resting calcium signal, replicate 2 (fluorescence units) |
| --- | --- | --- | --- | --- | --- |
| CG31259 | DRSC14366 | 4.18e7 | 3.29e7 | 2.13e7 | 1.63e7 |
| CG5800 | DRSC19962 | 1.68e7 | 1.79e7 | 1.02e7 | 1.02e7 |
| Rif1 | DRSC05593 | 3.66e7 | 5.23e7 | 3.21e7 | 2.16e7 |
| Skp2 | DRSC12329 | 2.78e7 | 3.97e7 | 1.40e7 | 2.76e7 |
| CG8028 | DRSC20075 | 3.79e7 | 4.52e7 | 2.05e7 | 1.96e7 |
| CG8569 | DRSC07214 | 3.74e7 | 4.29e7 | 1.63e7 | 2.04e7 |
| croc | DRSC11884 | 2.54e7 | 3.24e7 | 1.19e7 | 1.49e7 |
| CG42827 | DRSC16116 | 3.45e7 | 4.74e7 | 1.83e7 | 2.28e7 |
| CG1958 | DRSC18196 | 3.06e7 | 4.56e7 | 1.60e7 | 2.10e7 |
| CG32727 | DRSC17519 | 3.14e7 | 3.63e7 | 1.54e7 | 1.69e7 |
| CG43100 (retired record) | DRSC01001 | 3.44e7 | 3.87e7 | 1.62e7 | 1.71e7 |
| Gycalpha99B | DRSC16690 | 3.00e7 | 3.17e7 | 1.34e7 | 1.51e7 |
| Atg4b | DRSC15988 | 4.29e7 | 5.30e7 | 1.56e7 | 2.13e7 |
| zfh1 | DRSC14014 | 5.24e7 | 4.08e7 | 2.54e7 | 1.85e7 |
| zfh1 | DRSC17098 | 3.81e7 | 3.81e7 | 1.99e7 | 2.04e7 |
| CCKLR-17D1 | DRSC20010 | 3.74e7 | 3.22e7 | 1.67e7 | 1.34e7 |
| CCKLR-17D1 | DRSC20011 | 3.89e7 | 3.34e7 | 1.70e7 | 1.37e7 |
| CCKLR-17D1 | DRSC20012 | 4.00e7 | 3.84e7 | 1.74e7 | 1.40e7 |
| CG4570 | DRSC15602 | 4.40e7 | 3.46e7 | 2.18e7 | 1.80e7 |
| Ranbp21 | DRSC19447 | 3.19e7 | 2.74e7 | 1.54e7 | 1.22e7 |
| CG13000 | DRSC19519 | 2.72e7 | 2.23e7 | 1.53e7 | 1.19e7 |
| psidin | DRSC15660 | 2.80e7 | 3.32e7 | 3.57e7 | 1.37e7 |
| Crtc | DRSC10578 | 3.45e7 | 4.22e7 | 1.88e7 | 2.00e7 |
| Crtc | DRSC23130 | 3.04e7 | 3.42e7 | 1.51e7 | 1.67e7 |
| RnrS | DRSC07533 | 2.07e7 | 2.07e7 | 1.29e7 | 1.19e7 |
| Chd1 | DRSC00745 | 3.77e7 | – | 2.00e7 | – |
| CG33012 | DRSC06287 | 2.85e7 | 3.63e7 | 1.52e7 | 1.69e7 |
| CG33012 | DRSC06288 | 2.82e7 | 3.84e7 | 1.57e7 | 1.76e7 |
| akirin | DRSC11000 | 4.74e7 | 3.11e7 | 3.66e7 | 1.55e7 |
| CG6749 | DRSC10704 | 2.68e7 | 4.78e7 | 1.49e7 | 1.99e7 |
| Rexo5 | DRSC10981 | 2.46e7 | 2.92e7 | 1.28e7 | 1.61e7 |
| Prx6c + CG12896 + Prx6b | DRSC06148 | 4.48e7 | 4.69e7 | 2.16e7 | 2.16e7 |
| wnd | DRSC09626 | 3.81e7 | 3.73e7 | 2.13e7 | 1.86e7 |
| wnd | DRSC11046 | 2.11e7 | 3.32e7 | 1.10e7 | 2.28e7 |
| wnd | DRSC21373 | 4.13e7 | 3.77e7 | 2.12e7 | 1.73e7 |
| CG14877 | DRSC15001 | 3.93e7 | 4.34e7 | 1.85e7 | 5.57e7 |
| kon | DRSC02033 | 3.39e7 | – | 1.38e7 | – |
| kumpel | DRSC14883 | 4.79e7 | 4.67e7 | 2.50e7 | 2.00e7 |
| kumpel | DRSC16459 | 3.76e7 | 5.63e7 | 1.86e7 | 2.25e7 |
| kumpel | DRSC16460 | 5.57e7 | 4.45e7 | 2.40e7 | 1.73e7 |
| kumpel | DRSC16461 | 3.75e7 | 6.74e7 | 1.94e7 | 2.62e7 |
| kumpel | DRSC16462 | 4.01e7 | 7.11e7 | 2.08e7 | 2.92e7 |
| kumpel | DRSC16463 | 5.46e7 | 7.55e7 | 2.58e7 | 3.17e7 |
| Polr3I | DRSC19922 | 2.86e7 | 3.09e7 | 1.40e7 | 1.26e7 |
| CG4045 | DRSC18518 | 3.89e7 | 4.34e7 | 1.74e7 | 2.09e7 |
| Ldaf1 | DRSC17963 | 4.12e7 | 4.13e7 | 1.85e7 | 1.89e7 |
| LysD + LysB + LysC (retired record) | DRSC21249 | 4.55e7 | 4.39e7 | 2.41e7 | 1.96e7 |
| apolpp | DRSC17216 | 3.99e7 | 4.18e7 | 1.71e7 | 1.77e7 |
| COX6B | DRSC19590 | 5.65e7 | 4.97e7 | 2.30e7 | 2.04e7 |
| CG3795 | DRSC18593 | 2.92e7 | 4.10e7 | 1.39e7 | 1.96e7 |
| Vajk1 | DRSC01882 | 4.71e7 | 2.79e7 | 1.84e7 | 1.29e7 |
| CG6357 | DRSC06979 | 3.36e7 | 2.87e7 | 1.52e7 | 1.45e7 |
| CG3251 | DRSC00586 | 2.37e7 | 2.51e7 | 1.21e7 | 1.15e7 |
| CG15167 | DRSC02468 | 4.45e7 | 4.20e7 | 2.17e7 | 1.82e7 |
| thoc7 | DRSC08512 | 4.35e7 | 3.66e7 | 1.92e7 | 1.80e7 |
| PTP-ER | DRSC04636 | 3.79e7 | – | 2.06e7 | – |
| PTP-ER | DRSC23325 | 4.03e7 | 4.58e7 | 1.78e7 | 1.93e7 |
| Sfp26Ad | DRSC00904 | 2.83e7 | 3.61e7 | 1.57e7 | 1.49e7 |
